Measured data: PubChem BioAssay AID1671195 (Yale University, 2021)
Screen: 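Genes whose knockdown alters LDL uptake in liver cancer cells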 (primary screen). Cell system: human Huh7 hepatoma cells. Knock-down reagent: siRNA pool against human genes, 18 nM. Time to read-out: about 2 to 2.5 days of knockdown, then 8 h LDL uptake. Treatment: DiI-labelled LDL at 30 µg/ml for 8 h, in lipoprotein-deficient serum medium. Detection: 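Per-cell DiI-LDL intensity by automated imaging; well means scaled to the plate median and given as a robust z-score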. Reading the numbers: robust z-score: higher = more LDL uptake after knockdown. Active means: 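Active when two or more replicates show a robust z-score above 2 or below -2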.
The whole screen tested about 22,000 reagents; this is an unselected part. In the full data, about 1,510 (6.9%) are marked active. 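Active includes knockdowns raising or lowering LDL uptake; positive z-scores mean more uptake, negative mean less.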 Unmarked entries are inactive. No sequences are given here.

| Target gene | PubChem SID | robust z-score, replicate 1 | robust z-score, replicate 2 | robust z-score, replicate 3 |
| --- | --- | --- | --- | --- |
| AFG1L | SID442884055 | 2.01 (active) | 1.96 | 2.1 |
| MARCHF2 | SID442884330 | -2.65 (active) | -1.37 | -1.86 |
| TBC1D19 | SID442885940 | 1.77 | 1.07 | 1.11 |
| TNXB | SID442887692 | 1.65 | -0.294 | 1.23 |
| TDRD9 | SID442898704 | -0.681 | -0.355 | -0.549 |
| FAM227A | SID442890138 | 0.333 | 0.492 | 0.55 |
| GPR119 | SID442902763 | -1.41 | -0.634 | -1.39 |
| FAM111A | SID442894915 | 0.104 | -0.202 | -0.244 |
| AUP1 | SID442897976 | -0.776 | -0.602 | 0.0384 |
| NCCRP1 | SID442901248 | -0.836 | -0.984 | -0.799 |
| ZNF236 | SID442902433 | -0.242 | -1.82 | -1.16 |
| VEGFD | SID442889708 | 0.904 | 1.28 | -0.621 |
| NAP1L5 | SID442890544 | 0.386 | 0.337 | 0.486 |
| UQCR11 | SID442891194 | 0.885 | -0.343 | 0.413 |
| ERH | SID442888495 | 0.807 | 0.182 | 1.14 |
| SLMAP | SID442886200 | 1.68 | 2.14 | -0.12 |
| ATL2 | SID442891377 | 0.0696 | 0.018 | 0.794 |
| CETN1 | SID442898250 | -0.146 | -0.737 | -0.552 |
| PTF1A | SID442894602 | -0.791 | 1.05 | -0.499 |
| SAA4 | SID442900843 | -0.921 | -0.951 | -0.573 |
| LOC440839 (retired record) | SID442904560 | -4.05 | -0.401 | -0.691 |
| DAPK3 | SID442893660 | -0.254 | -0.133 | 0.46 |
| GFUS | SID442887382 | 0.751 | 0.842 | 1.18 |
| ARB2A | SID442890380 | 0.196 | -0.0768 | 1.15 |
| LOC440080 (retired record) | SID442891582 | 0.144 | 0.228 | 0.431 |
| ASPN | SID442902090 | -1.12 | -1.43 | -0.476 |
| PPP2R2D | SID442902739 | -0.83 | -1.09 | -1.49 |

Continued (6 carried over from the part before).
| Target gene | PubChem SID | robust z-score, replicate 1 | robust z-score, replicate 2 | robust z-score, replicate 3 |
| --- | --- | --- | --- | --- |
| DAPK3 | SID442893660 | -0.254 | -0.133 | 0.46 |
| GFUS | SID442887382 | 0.751 | 0.842 | 1.18 |
| ARB2A | SID442890380 | 0.196 | -0.0768 | 1.15 |
| LOC440080 (retired record) | SID442891582 | 0.144 | 0.228 | 0.431 |
| ASPN | SID442902090 | -1.12 | -1.43 | -0.476 |
| PPP2R2D | SID442902739 | -0.83 | -1.09 | -1.49 |
| TMEM14A | SID442883683 | 2.74 (active) | 1.85 | 2.79 |
| NPR2 | SID442897458 | -0.955 | 0.337 | -0.546 |
| PTGDR | SID442899074 | -0.803 | -0.325 | -0.593 |
| HAS1 | SID442903095 | -0.246 | -0.747 | -2.65 |
| SAP30L | SID442890088 | 0.154 | 0.708 | 0.535 |
| LOC391707 | SID442891136 | 0.894 | 0.123 | -0.0404 |
| CD300A | SID442891453 | 0.455 | 0.132 | 0.267 |
| LOC388420 (retired record) | SID442897360 | -0.438 | -0.469 | -0.227 |
| CD101 | SID442884252 | -0.0902 (active) | -2.25 | -1.95 |
| MORC1 | SID442891689 | -0.0148 | 0.166 | 0.613 |
| LINC02905 | SID442897508 | -0.342 | -0.6 | -0.239 |
| RNF214 | SID442889666 | 0.494 | 0.548 | 0.536 |
| SLC16A9 | SID442904773 | -1.75 | -2.06 | -1.85 |
| SLC49A4 | SID442897530 | -0.442 | -0.261 | -0.487 |
| SH3YL1 | SID442894951 | 0.691 | -1.3 | 0.256 |
| TMEM109 | SID442883550 | 2.07 (active) | 2.51 | 3.52 |
| RABL6 | SID442895141 | -1.39 | 0.744 | 0.225 |
| GRIN2B | SID442900092 | -0.787 | -0.799 | -0.547 |
| PLK1 | SID442890767 | 0.234 | 1.12 | -0.246 |
